These are yes or no findings as the source states them, for the method shown. Some entries that bind do so weakly or less than the wild type. Tags and fused reporters may be left off the sequences shown.
T1: Full-length Top2, yeast two-hybrid fusion (budding yeast (S. cerevisiae)) (UniProt P06786)
T1 sequence: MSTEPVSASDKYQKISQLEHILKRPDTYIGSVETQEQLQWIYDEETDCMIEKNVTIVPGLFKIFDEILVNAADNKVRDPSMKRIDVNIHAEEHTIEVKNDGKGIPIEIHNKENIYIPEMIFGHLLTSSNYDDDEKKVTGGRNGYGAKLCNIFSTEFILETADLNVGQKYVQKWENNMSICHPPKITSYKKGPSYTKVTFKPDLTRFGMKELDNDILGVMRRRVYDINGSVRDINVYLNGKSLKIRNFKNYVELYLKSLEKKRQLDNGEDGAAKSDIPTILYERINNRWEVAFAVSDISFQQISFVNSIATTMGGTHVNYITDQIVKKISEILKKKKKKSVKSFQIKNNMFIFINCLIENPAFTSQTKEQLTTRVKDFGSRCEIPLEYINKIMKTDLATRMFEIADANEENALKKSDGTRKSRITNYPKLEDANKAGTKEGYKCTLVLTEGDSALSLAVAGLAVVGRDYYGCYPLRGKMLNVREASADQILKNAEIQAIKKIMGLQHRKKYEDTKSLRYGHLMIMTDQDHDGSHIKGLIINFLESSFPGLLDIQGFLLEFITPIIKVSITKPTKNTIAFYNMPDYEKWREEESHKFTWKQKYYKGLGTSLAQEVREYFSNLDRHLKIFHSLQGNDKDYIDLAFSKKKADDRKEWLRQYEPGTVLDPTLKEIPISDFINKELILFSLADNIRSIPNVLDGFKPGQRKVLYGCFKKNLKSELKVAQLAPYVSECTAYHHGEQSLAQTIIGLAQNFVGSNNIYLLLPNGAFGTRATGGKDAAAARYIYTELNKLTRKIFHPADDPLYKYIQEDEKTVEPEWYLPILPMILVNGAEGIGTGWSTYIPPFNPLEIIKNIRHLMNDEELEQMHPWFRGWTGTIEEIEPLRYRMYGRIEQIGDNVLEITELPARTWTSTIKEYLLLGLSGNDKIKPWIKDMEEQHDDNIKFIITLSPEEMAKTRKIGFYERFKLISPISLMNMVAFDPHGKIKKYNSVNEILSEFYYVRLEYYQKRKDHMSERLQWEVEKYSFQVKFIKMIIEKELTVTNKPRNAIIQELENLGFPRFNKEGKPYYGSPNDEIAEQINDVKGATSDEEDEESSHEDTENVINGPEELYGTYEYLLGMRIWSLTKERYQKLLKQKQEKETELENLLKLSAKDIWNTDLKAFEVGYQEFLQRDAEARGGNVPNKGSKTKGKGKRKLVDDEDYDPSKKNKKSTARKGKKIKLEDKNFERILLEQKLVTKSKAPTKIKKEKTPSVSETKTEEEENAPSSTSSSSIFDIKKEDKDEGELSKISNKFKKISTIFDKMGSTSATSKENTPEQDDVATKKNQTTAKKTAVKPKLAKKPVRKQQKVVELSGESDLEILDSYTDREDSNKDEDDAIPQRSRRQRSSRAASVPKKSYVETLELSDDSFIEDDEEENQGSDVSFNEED


Assays:
[1] = biological target: T1, Full-length Top2, yeast two-hybrid fusion (budding yeast (S. cerevisiae)); assay: two-hybrid; Gal4 activator domain (pOAD) and Gal4 binding domain (pOBD) plasmids in yeast; growth on -LWH plates with 5 mM 3-Amino-1,2,4-triazole, control -LW plates
[2] = biological target: SUMO, yeast two-hybrid fusion [SUMO: Q12306]; assay: two-hybrid; Y2H assay with SUMO (Supplementary Figure S3A); conditions not given

binding [1] | binding [2] | Binder
no binding | – | Uls1 fragment 1-350 (HFP193), yeast two-hybrid fusion (domain or fragment, UniProt Q08562 1-350) MAAVPTIDLTLADSDNEDIFHSFSSSTSVDKIDIRKENGKLRMAGLEVAQSNDDAARQAFHVFKTNISNNETFDTILSKSKTITDSTFNNEKSSNEVKQQQVLKEETMGSSNDEKKTQESSPSAEMIKLFYENDDVPLSDSFKQKEEGKRINQDEQVKENICGISSSYVSKDYDGVEDDFEPNTCQDSNLDFQEEKLNLNNKPSQQQFSDPETKDNSLKSENKDQIKGVTTTSYRDLPIESSAFQDSETQNNSKNTIPNIVNEKRTPALPSNLSSVESSLKNETAKVEGKTTVRLPGLQNNVALLEQEQSELFKHFSEQPVDISDFGRKIKRKHSGDFADNKILKRPILP
binds | binds | Uls1 350-655 (HFP133), yeast two-hybrid fusion (domain or fragment, UniProt Q08562 350-655) PSKNMDHTTHNSHDSEQKNSSIIILSDEDESGAGINDIESPLKVSEPNTADALRSSVPEVISLLDLPNIDLNNSVIKEASGSNSIPTSETDAQSSSSSVLQGTIMTEQATQSSQHECNSSLDTLKKNHQKLLKDLNSRESELRNALSCCKTNSEILRRKLSRREKEVSDAEKHWQLLLTSMARGGRTISSTQQILVDEAENQLNKLKEKRQLTKSKLDSINLKMYNYNEQWKSFVHSKNINLQKSLAALERSARDSKASATVNKRNECLAEKEKLDQMLKEGTLSFSTYKQLTGEIQQKLNDLKLG
no binding | – | Uls1 fragment 655-1619 (HFP134), yeast two-hybrid fusion (domain or fragment, UniProt Q08562 655-1619) GDQRTTDINSVLPIVRQPLAKRDLFIKSIDTAKDLLAKNTSRTEMTKRILYRHLDNLVSYKNFFEDGRSLIDINRRHVAHESAQILFTNGVKMPIVFETLQDYGIKFSNPAIVNPDRRAQYFKSIEVARDLISKSTRSEDAKRKITRFLNIIEEFRKDIDTGFPPTPLKREGVGKAVVGLRQQGLKMDRLYENLRRYKIPITSEELLQQSYLFPVNADQRPPSNWNIVENTEDTSSTANDLSMQDEFHISNMHAAEDQEQIRALLENVKQSESIIDGEALTPEDMTVNLLKHQRLGLHWLLQVENSAKKGGLLADDMGLGKTIQAIALMLANRSEESKCKTNLIVAPVSVLRVWKGELETKVKKRAKFTTFIFGGSGNGKVKHWRDLARYDAVLVSYQTLANEFKKHWPKKLDGEQNQLPAVPHIQALNRLKTSNEYYSPFFCNDSTFYRILLDEGQNIKNKNTRASKACCTINGMYRWVLSGTPIQNSMDELYSLIRFLRIPPYHKEQRFKLDIGRFFQRNKQYQYDNEDRKNALRKVRVLLNAIMLRRSKADKIDGKPLLELPPKIVEVDESRLKGEELKFYTALESKNQALAKKLLNNSTRGSYSSVLTLLLRLRQACCHSELVVMGEKKAEGTKVANGKSFEDDWLRLYYKITHMSGEAQAQVITSMNSMTCFWCMEQLEPEAMSVLTGCGHLICDTCIEPFIEESSMLPQAKKTKGGAFAIPCKDCQRLTNEKDIVSHKLYDQVINQGFTEEDLHAEYLSEMEKQKIQQKNVYVPNFESLEPSTKIEQCIQVIQRVFDESATEKIIIFSQFTTFFEILEHFLKNKLNFPYLKYIGSMNAQRRSDVINEFYRDPEKRILLISMKAGNSGLTLTCANHVVIVDPFWNPYVEEQAQDRCYRISQTKKVQVHKLFIKDSVEDRISELQKRKKEMVDSAMDPGKIKEVNSLGRRELGFLFGLNAL
